Patent US20050005314A1
Results are given in words; binding and its absence hold for the method and conditions named. For part of these data: Binding seen in cells or lysates may run through a third protein. Some results given as binding are weak or reduced against the parent protein; the word gives no strength.

By UniProt entry, the sequences of proteins in these tests, tags left out. Where a name states a change or a piece, a line headed by the entry shows the natural chain unless it says otherwise.
UniProt P06748: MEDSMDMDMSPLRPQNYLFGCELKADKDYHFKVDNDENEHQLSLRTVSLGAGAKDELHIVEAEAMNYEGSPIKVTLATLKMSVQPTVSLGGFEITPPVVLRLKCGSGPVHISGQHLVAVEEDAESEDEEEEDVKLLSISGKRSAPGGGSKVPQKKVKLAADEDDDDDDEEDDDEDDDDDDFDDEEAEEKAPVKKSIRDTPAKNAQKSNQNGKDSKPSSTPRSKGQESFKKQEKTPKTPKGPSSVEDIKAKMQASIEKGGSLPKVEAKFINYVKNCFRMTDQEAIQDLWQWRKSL
UniProt Q9UM73: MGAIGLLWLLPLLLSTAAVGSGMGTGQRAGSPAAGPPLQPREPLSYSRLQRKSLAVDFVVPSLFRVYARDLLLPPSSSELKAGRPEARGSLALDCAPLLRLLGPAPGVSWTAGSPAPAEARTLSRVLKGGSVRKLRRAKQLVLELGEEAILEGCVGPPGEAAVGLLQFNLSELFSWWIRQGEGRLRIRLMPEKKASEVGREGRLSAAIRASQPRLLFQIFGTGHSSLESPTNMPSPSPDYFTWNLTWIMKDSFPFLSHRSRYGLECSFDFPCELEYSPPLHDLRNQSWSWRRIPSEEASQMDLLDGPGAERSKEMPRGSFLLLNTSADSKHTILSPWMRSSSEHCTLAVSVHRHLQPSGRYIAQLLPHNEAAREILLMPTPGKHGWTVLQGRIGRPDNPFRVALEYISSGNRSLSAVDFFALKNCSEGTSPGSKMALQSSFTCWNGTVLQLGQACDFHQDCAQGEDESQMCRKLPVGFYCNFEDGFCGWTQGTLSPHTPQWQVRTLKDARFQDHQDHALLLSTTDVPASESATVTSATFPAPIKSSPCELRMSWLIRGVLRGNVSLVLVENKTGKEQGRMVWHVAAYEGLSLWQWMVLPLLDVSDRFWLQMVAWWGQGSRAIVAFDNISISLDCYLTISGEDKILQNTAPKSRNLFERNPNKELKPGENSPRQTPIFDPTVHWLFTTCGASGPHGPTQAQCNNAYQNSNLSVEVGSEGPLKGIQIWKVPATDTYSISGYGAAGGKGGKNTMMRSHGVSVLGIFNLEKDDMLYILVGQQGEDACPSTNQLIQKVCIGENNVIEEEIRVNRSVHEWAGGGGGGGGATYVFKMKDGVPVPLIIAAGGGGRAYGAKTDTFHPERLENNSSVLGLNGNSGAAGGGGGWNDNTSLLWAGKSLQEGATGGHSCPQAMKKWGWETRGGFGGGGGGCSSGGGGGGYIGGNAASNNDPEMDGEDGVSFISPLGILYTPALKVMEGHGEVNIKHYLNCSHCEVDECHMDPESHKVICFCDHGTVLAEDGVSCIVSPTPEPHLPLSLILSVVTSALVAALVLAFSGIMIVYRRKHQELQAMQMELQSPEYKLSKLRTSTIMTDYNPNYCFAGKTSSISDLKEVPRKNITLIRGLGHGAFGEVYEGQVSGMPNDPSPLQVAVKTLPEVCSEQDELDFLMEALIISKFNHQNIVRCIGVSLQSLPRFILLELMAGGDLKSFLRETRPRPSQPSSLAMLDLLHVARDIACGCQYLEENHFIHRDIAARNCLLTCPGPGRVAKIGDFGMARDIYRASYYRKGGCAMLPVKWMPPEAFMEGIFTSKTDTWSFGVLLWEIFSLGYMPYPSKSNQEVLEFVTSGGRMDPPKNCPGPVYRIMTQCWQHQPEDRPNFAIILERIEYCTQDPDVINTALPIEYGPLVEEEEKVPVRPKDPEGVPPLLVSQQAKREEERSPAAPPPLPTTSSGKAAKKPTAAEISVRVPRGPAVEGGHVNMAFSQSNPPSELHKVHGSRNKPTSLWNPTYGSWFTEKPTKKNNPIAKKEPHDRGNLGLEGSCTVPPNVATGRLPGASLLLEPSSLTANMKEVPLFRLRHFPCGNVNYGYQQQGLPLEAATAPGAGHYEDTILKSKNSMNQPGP
UniProt P35569: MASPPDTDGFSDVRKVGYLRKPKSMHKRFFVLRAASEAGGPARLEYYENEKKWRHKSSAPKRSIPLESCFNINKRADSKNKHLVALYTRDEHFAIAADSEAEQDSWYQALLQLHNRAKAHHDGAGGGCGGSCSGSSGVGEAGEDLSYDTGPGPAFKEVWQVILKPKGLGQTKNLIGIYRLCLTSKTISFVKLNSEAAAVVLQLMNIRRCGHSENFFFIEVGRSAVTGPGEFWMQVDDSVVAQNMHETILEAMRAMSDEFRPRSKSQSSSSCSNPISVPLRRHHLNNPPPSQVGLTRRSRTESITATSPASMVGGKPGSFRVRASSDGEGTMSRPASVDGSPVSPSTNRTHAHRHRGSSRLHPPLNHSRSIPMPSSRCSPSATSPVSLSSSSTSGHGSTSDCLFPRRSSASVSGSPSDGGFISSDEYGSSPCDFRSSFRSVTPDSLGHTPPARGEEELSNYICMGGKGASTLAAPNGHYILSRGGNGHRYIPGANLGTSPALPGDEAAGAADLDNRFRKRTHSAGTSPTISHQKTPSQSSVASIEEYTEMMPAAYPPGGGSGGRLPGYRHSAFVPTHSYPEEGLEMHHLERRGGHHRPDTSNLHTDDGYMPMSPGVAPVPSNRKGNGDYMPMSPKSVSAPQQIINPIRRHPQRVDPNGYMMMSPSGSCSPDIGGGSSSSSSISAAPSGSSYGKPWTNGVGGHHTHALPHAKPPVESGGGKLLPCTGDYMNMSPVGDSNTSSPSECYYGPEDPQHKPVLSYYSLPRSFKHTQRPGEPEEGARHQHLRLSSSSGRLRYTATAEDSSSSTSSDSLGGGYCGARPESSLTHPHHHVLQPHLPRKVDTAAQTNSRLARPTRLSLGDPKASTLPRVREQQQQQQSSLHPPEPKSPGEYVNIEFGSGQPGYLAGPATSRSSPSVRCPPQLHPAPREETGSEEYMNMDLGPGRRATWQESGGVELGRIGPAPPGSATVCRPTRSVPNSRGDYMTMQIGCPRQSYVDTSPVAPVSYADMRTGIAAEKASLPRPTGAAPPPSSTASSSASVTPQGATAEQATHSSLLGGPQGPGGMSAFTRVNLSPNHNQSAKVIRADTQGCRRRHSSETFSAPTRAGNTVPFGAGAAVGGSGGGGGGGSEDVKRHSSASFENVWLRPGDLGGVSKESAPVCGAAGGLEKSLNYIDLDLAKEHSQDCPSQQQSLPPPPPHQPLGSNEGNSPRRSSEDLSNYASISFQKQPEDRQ
UniProt Q60631: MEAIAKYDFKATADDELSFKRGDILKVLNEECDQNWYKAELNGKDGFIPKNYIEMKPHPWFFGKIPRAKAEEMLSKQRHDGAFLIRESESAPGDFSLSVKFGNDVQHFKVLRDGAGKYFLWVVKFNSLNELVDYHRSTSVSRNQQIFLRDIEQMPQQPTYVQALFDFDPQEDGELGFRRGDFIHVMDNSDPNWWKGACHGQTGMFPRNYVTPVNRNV

How the values were obtained:
[1] = biological target: T1, NPM-ALK fusion protein (human NPM-ALK chimera expressed from the full-length cDNA in transgenic mouse T cells) (human) (UniProt P06748+Q9UM73); assay: co-immunoprecipitation (summary of Example 1)
[2] = biological target: T1, NPM-ALK fusion protein (human NPM-ALK chimera expressed from the full-length cDNA in transgenic mouse T cells) (human); assay: immunoprecipitation with anti-ALK, Western blot
[3] = biological target: T1, NPM-ALK fusion protein (human NPM-ALK chimera expressed from the full-length cDNA in transgenic mouse T cells) (human); assay: co-immunoprecipitation and Western blot, lysates of transgenic mouse cells
[4] = biological target: T1, NPM-ALK fusion protein (human NPM-ALK chimera expressed from the full-length cDNA in transgenic mouse T cells) (human); assay: immunoprecipitation with anti-ALK or anti-Grb-2, Western blot

Measured: binding

mouse IRS-1 (from UniProt P35569 1-1233)
binds: [1] | [2] | [3]

mouse Grb-2 (from UniProt Q60631 1-217)
binds: [1] | [4] | [3]

B1: mouse Shc (protein, UniProt P98083 1-579, looked up)
chain: MDLLPPKPKYNPLRNESLSSLEEGASGSTPPEELPSPSASSLGPILPPLPGDDSPTTLCSFFPRMSNLKLANPAGGRLGPKGEPGKAAEDGEGSAGAALRDSGLLPLLQDMNKLSGGGGRRTRVEGGQLGGEEWTRHGSFVNKPTRGWLHPNDKVMGPGVSYLVRYMGCVEVLQSMRALDFNTRTQVTREAISLVCEAVPGAKGATRRRKPCSRPLSSILGRSNLKFAGMPITLTVSTSSLNLMAADCKQIIANHHMQSISFASGGDPDTAEYVAYVAKDPVNQRACHILECPEGLAQDVISTIGQAFELRFKQYLRNPPKLVTPHDRMAGFDGSAWDEEEEEPPDHQYYNDFPGKEPPLGGVVDMRLREGAARPTLPSAQMSSHLGATLPIGQHAAGDHEVRKQMLPPPPCPGRELFDDPSYVNIQNLDKARQAGGGAGPPNPSLNGSAPRDLFDMKPFEDALRVPPPPQSMSMAEQLQGEPWFHGKLSRREAEALLQLNGDFLVRESTTTPGQYVLTGLQSGQPKHLLLVDPEGVVRTKDHRFESVSHLISYHMDNHLPIISAGSELCLQQPVDRKV
binds: [1] | [2] | [3]
